The source of these data is publication PMC7819943, “Rice protein-binding microarrays: a tool to detect cis-acting elements near promoter regions in rice”.

The other results are listed elsewhere or left out.

This assay has as its target T1, OsSMF1 (Oryza sativa, UniProt Q6ZLB0 1-436).
T1 sequence: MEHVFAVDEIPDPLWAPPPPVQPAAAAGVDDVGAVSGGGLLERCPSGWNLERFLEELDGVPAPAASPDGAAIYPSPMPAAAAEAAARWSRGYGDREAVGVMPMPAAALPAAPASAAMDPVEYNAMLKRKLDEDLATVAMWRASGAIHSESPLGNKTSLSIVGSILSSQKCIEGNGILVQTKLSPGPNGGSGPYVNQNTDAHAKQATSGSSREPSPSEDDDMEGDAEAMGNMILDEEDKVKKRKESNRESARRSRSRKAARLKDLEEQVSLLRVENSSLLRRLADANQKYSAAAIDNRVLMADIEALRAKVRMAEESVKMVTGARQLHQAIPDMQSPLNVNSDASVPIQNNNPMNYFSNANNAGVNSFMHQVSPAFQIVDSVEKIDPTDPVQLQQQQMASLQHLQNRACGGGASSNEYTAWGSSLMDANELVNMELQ
As to the kind of experiment: protein-binding microarray (RPBM); PBS, 2% BSA, 51.3 ng/ul salmon testes DNA, 50 uM zinc acetate, 200 nM TF, 25 C, 1 h; high values mean tight binding. The following applies: protein: recombinant; tags: N-terminal polyhistidine and DsRed monomer fusion (pET32a); chain copies: 2; label: CyDye5-dUTP incorporated in the synthesized complementary strand; 3' TTTTT single-stranded linker to array surface; dsDNA, one strand shown. A digest of the protocol: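 Polyhistidine-tagged DsRed fusions of transcription factors, joined at the N-terminus, were expressed in E. coli BL21-CodonPlus and isolated on Ni–NTA. They were incubated at 200 nM for 1 h at 25 °C on a custom Agilent array, double-stranded and BSA-blocked, in PBS with 2% BSA, salmon testes DNA and 50 µM zinc acetate. The binding signal is per-feature fluorescence intensity (arbitrary units) read on an Axon 4000B scanner after washing.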
For “AGTACAATACAATACAAATCATCAAGTATAAACCAAAGGTCGGAGTCACCTAGTGCAG”, the binding signal is 3760 fluorescence intensity (a.u.).
With “GCTACATGATTTGACTACGTGGTGCTATAGTAAACATTTGCGGAGTCACCTAGTGCAG”, the binding signal was 5280 fluorescence intensity (a.u.).
For “AACTGATTGGCTGAGGGATGGCATCTGGTGGTGGCGCCCCCGGAGTCACCTAGTGCAG”, the binding signal was 3220 fluorescence intensity (a.u.).
Under “CGTTTGTCCTTCGATAACAGTGTGTCATGGCCCATATATACGGAGTCACCTAGTGCAG” stands 3980 fluorescence intensity (a.u.).
With “TCTGCCGCCGGCCGCGGCGAGGGATGGCATTGGCGTGGCGCGGAGTCACCTAGTGCAG”, the binding signal is 3550 fluorescence intensity (a.u.).
In the case of “ATGAAGAGGTTCTTCGGCGACACGCGGCCGCCCAACTACTCGGAGTCACCTAGTGCAG” it was 3440 fluorescence intensity (a.u.); in that of “TGCTTCCCCTGTTCTGATCACCTGCGCACACGGGTGCTCACGGAGTCACCTAGTGCAG”, 49200 fluorescence intensity (a.u.).
Under “GTTCTACACTCTTCGATCGCCTCCGCCGCGCTCGTGGGGTCGGAGTCACCTAGTGCAG” stands 3670 fluorescence intensity (a.u.); under “AATCGATTCGAAATTTCAATGAAAATTTTCCCTCCACACCCGGAGTCACCTAGTGCAG”, 30600 fluorescence intensity (a.u.).
In the case of “CAAAGCAATGCCAGTAACAAAATTAAGTACCTGGGAGCTCCGGAGTCACCTAGTGCAG” it was 27500 fluorescence intensity (a.u.); in that of “GCCGCCGCCGTGGCCGTCGTCGTCGGCGCCATTGCCGTCGCGGAGTCACCTAGTGCAG”, 3800 fluorescence intensity (a.u.).
On to “CTCTGCCTCCTCTCTCCAGTGACACATATATATAGTAGCTCGGAGTCACCTAGTGCAG”, for which the binding signal was 5240 fluorescence intensity (a.u.).
In the case of “AGCGATCCAATGAGACCCACTCCGTTTTGCCGTTGGGCTACGGAGTCACCTAGTGCAG”, the binding signal was 3150 fluorescence intensity (a.u.).
Take “GCCGATGCTTCAGCACGTGGGCTGGCAAAGCCCAGTGTGTCGGAGTCACCTAGTGCAG”: the binding signal was 3840 fluorescence intensity (a.u.).
With “GGATCTTGCTTTCCATGAGGCAGGATTTTCTTTGGTCATTCGGAGTCACCTAGTGCAG”, the binding signal is 26400 fluorescence intensity (a.u.).
Regarding “GGCATGTGGTTGGCTTCTGGAACCGTACGTGTTGCGTTTTCGGAGTCACCTAGTGCAG”, the binding signal is 3320 fluorescence intensity (a.u.).
Turning to “CGCTGAGGTAGCTGCCACGTCAGCTGGGGATCGGCCCGGCCGGAGTCACCTAGTGCAG”, the binding signal was 34400 fluorescence intensity (a.u.).
Under “ACGGCTGGGGCCACACTCCGGTACACGTACACGACGAGACCGGAGTCACCTAGTGCAG” stands 3560 fluorescence intensity (a.u.); under “TACTGCCCTAGAGCCGCCTCACGTGGACTTATATGCGGTTCGGAGTCACCTAGTGCAG”, 4460 fluorescence intensity (a.u.); under “CTCACCTACCGCATCTGTGTTCCTTTTGCTTTCTTTCTTTCGGAGTCACCTAGTGCAG”, 3140 fluorescence intensity (a.u.).
In the case of “TGCAGTATCTGCCGTTCGTATCGCTGCGTTGAATCTTCCACGGAGTCACCTAGTGCAG”, the binding signal was 47100 fluorescence intensity (a.u.).
Consider “GTTCGGCCGAACCCGGGGTGGCTCTGTTCGCTCCAGTTTTCGGAGTCACCTAGTGCAG”, for which the binding signal is 3470 fluorescence intensity (a.u.).
Regarding “AAGCTTGTGATGTGAAACGTACGCGTGTCTGCATTGGCCTCGGAGTCACCTAGTGCAG”, the binding signal was 6570 fluorescence intensity (a.u.).
Turning to “CCTTCTCGGGCTTTGTTGTACGTATGCGTCTCGTGTTGGGCGGAGTCACCTAGTGCAG”, the binding signal was 3460 fluorescence intensity (a.u.).
As to “GACATCCGCCACGGTGCCGTGTCATCGGCGCGGGTGACCACGGAGTCACCTAGTGCAG”, the binding signal is 6240 fluorescence intensity (a.u.).
As to “TCCCTCTCCCAAAGTCAAACCCAAAATACAACACAATTGTCGGAGTCACCTAGTGCAG”, the binding signal is 3510 fluorescence intensity (a.u.).
Turning to “CTAAACTAATCAGGCGCCACGTCGGATGTGCTTACCACGTCGGAGTCACCTAGTGCAG”, the binding signal is 28100 fluorescence intensity (a.u.).
In the case of “GTGAAATTATCGCCCAAAACGCAATGCCTCGTCCAGCCAGCGGAGTCACCTAGTGCAG”, the binding signal was 3240 fluorescence intensity (a.u.).
Under “CCGGGCGAGCTCGAGCTCGAACACGTACGTTGGATGACCTCGGAGTCACCTAGTGCAG” stands 3820 fluorescence intensity (a.u.).
In the case of “ATTTTAAAATTTATAATTACAATGTGAGTGTAAGCAAGTGCGGAGTCACCTAGTGCAG” it was 3220 fluorescence intensity (a.u.).
Consider “GATATATAGGGTGATTAGTTTGAATCATGACAAATTTGCTCGGAGTCACCTAGTGCAG”, for which the binding signal is 4260 fluorescence intensity (a.u.).
In the case of “GTGCATCTGGGCCACGTGGCGCTTCGTTTCTTTCCTCCCCCGGAGTCACCTAGTGCAG” it was 35900 fluorescence intensity (a.u.); in that of “CTCTGCCCCACGTTGGCTCGCGTCCGCGGCCCATCTCCACCGGAGTCACCTAGTGCAG”, 4370 fluorescence intensity (a.u.); in that of “AATGTGATGACTGGACTGCCATGTCAGCCAATATCACCTTCGGAGTCACCTAGTGCAG”, 15900 fluorescence intensity (a.u.).
Under “GCAGAGCAAGGAGTAGTAGGTAGGACAAGTGGTGACGGGGCGGAGTCACCTAGTGCAG” stands 3170 fluorescence intensity (a.u.); under “GCTCGCGAGTCGCGATTCGTACGTGGAGACGACGAGTCGTCGGAGTCACCTAGTGCAG”, 3310 fluorescence intensity (a.u.).
Turning to “TTTTGTTGTACTTTTCTTTGCAGATGTTAATGTCAGGTCACGGAGTCACCTAGTGCAG”, the binding signal was 3470 fluorescence intensity (a.u.).
As to “AATTGCTATGGTTACACCCGGCCGAAGCAAAGTCACCACTCGGAGTCACCTAGTGCAG”, the binding signal was 3520 fluorescence intensity (a.u.).
In the case of “CGTCCCATTTTAAATGCGGTTATAGATTTTCGTCTCCAACCGGAGTCACCTAGTGCAG”, the binding signal was 3530 fluorescence intensity (a.u.).
For “GGCAGCTTAAGAAGGTTGTACACGTGGGCAACCGCCCATCCGGAGTCACCTAGTGCAG”, the binding signal is 4360 fluorescence intensity (a.u.).
“TGCATTCTGCCGATCTGCAAGGGACTATCTATCCTACTGGCGGAGTCACCTAGTGCAG”: the binding signal was 28600 fluorescence intensity (a.u.).
As to “CACTAAGTACTCAACTCTTCTTCAACGTGTCATTGCTCACCGGAGTCACCTAGTGCAG”, the binding signal is 6650 fluorescence intensity (a.u.).
